## Screening data

Data taken from PubChem BioAssay AID1918964, deposited by NCATS (2023).

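Survival of JIM1 myeloma cells over 48 h, read by ATP luminescence against DMSO-only control wells.
Compounds were tested as a dilution series from about 3.1e-05 to 92 µM, mostly topping out near 45.8 µM.
The number is the fitted AC50 potency for cell killing; a lower value means a more potent compound.
Calls follow NCATS curve-class scoring: inconclusive compounds get scores of 1 to 39, with a curve class other than 4, and actives get 40 to 100.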

Values are in µM.
Every entry below has the call inconclusive.
Only part of the assay is shown, chiefly results filed as inconclusive.
Potencies fitted to partial, single-point or poorly fitting curves are rough.
Some entries filed as inconclusive have a full curve.
The first word of each remark tells which way the curve ran; it can be opposite to the aim of the assay.
Activity scores are not listed here.

| # | Compound | fitted potency (µM) | remark |
|---|---|---|---|
| 1 | `COc1cnc(NS(=O)(=O)c2ccc(N)cc2)nc1` | 0.0017 | rising, full curve, poor fit |
| 2 | `Fc1cc(-c2cccc3ncc(-c4cnn(C5CCNCC5)c4)nc23)cc(F)c1CN1CCOCC1` | 13.21 | cytotoxic, partial curve, poor fit |
| 3 | `NNCCc1ccccc1` | 1.865 | cytotoxic, partial curve, poor fit |
| 4 | `Cc1cn2cc(C(=O)N(C)CCO)cc(N[C@@H]3CCOc4cccc(C)c43)c2n1` | 0.0012 | rising, full curve, poor fit |
| 5 | `O=c1[nH]c(=O)n([C@H]2C[C@@H](O)[C@@H](CO)O2)cc1C(F)(F)F` | 11.77 | cytotoxic, partial curve |
| 6 | `CCN(CC)CC#CCOC(=O)C(O)(c1ccccc1)C1CCCCC1` (stereo unspecified) | 0.0019 | cytotoxic, full curve, poor fit |
| 7 | `O=C(Nc1ccc(Oc2ccnc3[nH]ccc23)c(F)c1)c1cccn(-c2ccc(F)cc2)c1=O` | 11.77 | cytotoxic, single point |
| 8 | `c1cc(CN2CCCNCCNCCCNCC2)ccc1CN1CCCNCCNCCCNCC1` | 0.1482 | rising, full curve, poor fit |
| 9 | `CC(C)N(CC[C@H](c1ccccc1)c1cc(CO)ccc1O)C(C)C` | 0.003 | rising, full curve, poor fit |
| 10 | `Cc1ccc(NC(=O)c2cccc(N(C)C)c2)cc1NC(=O)c1ccc(O)cc1` | 33.17 | cytotoxic, single point |
| 11 | `Cc1cc(CS(=O)(=O)c2ccccc2)cc(OCc2ccc(CN3CCC[C@H]3CO)cc2)c1` | 1.049 | cytotoxic, full curve, poor fit |
| 12 | `c1ccc2c(CCNc3ccc(Nc4ccncc4)cc3)c[nH]c2c1` | 4.176 | cytotoxic, partial curve, poor fit |
| 13 | `Nc1cccc2c1C(=O)N(C1CCC(=O)NC1=O)C2=O` (stereo unspecified) | 0.0023 | cytotoxic, full curve, poor fit |
| 14 | `COc1ccc(C=Cc2cc(OC)c(OC)c(OC)c2)cc1NC(=O)[C@H](N)CO` | 0.0093 | cytotoxic, full curve |
| 15 | `CN(C1CCc2c(c3ccccc3n2CC(=O)O)C1)S(=O)(=O)c1ccc(F)cc1` (stereo unspecified) | 0.4686 | cytotoxic, full curve, poor fit |
| 16 | `CCCCCCNC(=O)n1cc(F)c(=O)[nH]c1=O` | 23.48 | cytotoxic, partial curve, poor fit |
| 17 | `CCOC(=O)C1=C[C@@H](OC(CC)CC)[C@H](NC(C)=O)[C@@H](N)C1` | 0.3722 | rising, full curve, poor fit |
| 18 | `COc1cc2c(Oc3ccc4[nH]c(C)cc4c3F)ncnc2cc1OCCCN1CCCC1` | 2.349 | cytotoxic, partial curve, poor fit |
| 19 | `Nc1ccc(-c2ccc3ncc4ccc(=O)n(-c5cccc(C(F)(F)F)c5)c4c3c2)cn1` | 0.0059 | cytotoxic, full curve |
| 20 | `CCS(=O)(=O)N1CC(CC#N)(n2cc(-c3ncnc4[nH]ccc34)cn2)C1` | 1.482 | cytotoxic, full curve, poor fit |
| 21 | `CCc1cc(Nc2nccc(-c3c(-c4ccc(OC)c(C(=O)Nc5c(F)cccc5F)c4)nc4ccccn34)n2)c(OC)cc1N1CCC(N2CCN(S(C)(=O)=O)CC2)CC1` | 20.93 | cytotoxic, partial curve, poor fit |
| 22 | `O=C1NC(=O)C(c2cnc3ccccn23)=C1c1cn2c3c(cccc13)CN(C(=O)N1CCOCC1)CC2` | 0.001 | cytotoxic |
| 23 | `N#Cc1c(O)c2c(-c3ccc(-c4ccccc4O)cc3)csc2[nH]c1=O` | 10.49 | cytotoxic, full curve, poor fit |
| 24 | `COc1cc2c(Nc3ccc(Br)cc3F)ncnc2cc1OCC1CCN(C)CC1` | 0.0012 | cytotoxic, full curve, poor fit |
| 25 | `CC(C(=O)O)c1ccc2c(c1)CC(=O)c1ccccc1S2` (stereo unspecified) | 5.258 | cytotoxic, partial curve, poor fit |
| 26 | `CC1(C)[C@H]2CC[C@]3(C)[C@@H](C(=O)C=C4[C@@H]5C[C@@](C)(C(=O)O)CC[C@]5(C)CC[C@]43C)[C@@]2(C)CC[C@@H]1O` | 0.0074 | rising, full curve, poor fit |
| 27 | `Cn1cnc([N+](=O)[O-])c1Sc1ncnc2nc[nH]c12` | 11.77 | cytotoxic, partial curve, poor fit |
| 28 | `OCc1ccc(-c2nn(Cc3ccccc3)c3ccccc23)o1` | 0.0053 | cytotoxic, full curve, poor fit |
| 29 | `COc1ccc(S(=O)(=O)Nc2cccnc2Nc2ccc(O)cc2)cc1` | 0.1177 | cytotoxic, full curve, poor fit |
| 30 | `Cc1cc([C@@H](C)Nc2ccccc2C(=O)O)c2nc(N3CCOCC3)cc(=O)n2c1` | 1.208 | cytotoxic, full curve |
| 31 | `CN1C(C(=O)Nc2ccccn2)=C(O)c2sc(Cl)cc2S1(=O)=O` | 37.22 | cytotoxic, single point |
| 32 | `O=C(O)CCC=CCC[C@@H]1[C@H](N2CCCCC2)[C@@H](O)C[C@@H]1OCc1ccc(-c2ccccc2)cc1` | 37.22 | cytotoxic, single point |
| 33 | `Cc1c(C)c2c(c(C)c1O)CCC(C)(COc1ccc(CC3SC(=O)NC3=O)cc1)O2` (stereo unspecified) | 37.22 | cytotoxic, single point |
| 34 | `Cc1cc(Cl)ccc1OCCCC(=O)NO` | 33.17 | cytotoxic, single point |
| 35 | `CC(C)n1cnc2c(NCCc3ccc(O)cc3)nc(-c3csc4ccccc34)nc21` | 0.0019 | rising, full curve, poor fit |
| 36 | `COc1ccc(CCC(=O)Nc2nc3ccc(Cl)cc3s2)cc1OC` | 13.21 | cytotoxic, partial curve, poor fit |
| 37 | `Cc1cc(SCc2sc(-c3ccc(C(F)(F)F)cc3)nc2C)ccc1OCC(=O)O` | 3.722 | cytotoxic, full curve, poor fit |
| 38 | `O=C(O)CCCCC(CCSCc1ccccc1)SCc1ccccc1` (stereo unspecified) | 23.48 | cytotoxic, single point |
| 39 | `O=C(O)Cn1nnc(-c2cc(N3CCC(Oc4cc(F)ccc4Br)CC3)no2)n1` | 0.0118 | cytotoxic, full curve, poor fit |
| 40 | `CCn1cc(C(=O)O)c(=O)c2cc(F)c(N3CCN(C)CC3)cc21` | 0.1865 | cytotoxic, full curve, poor fit |
| 41 | `COC1=C(OC)C(=O)C(CC=C(C)CCC=C(C)CCC=C(C)CCC=C(C)CCC=C(C)CCC=C(C)CCC=C(C)CCC=C(C)CCC=C(C)CCC=C(C)C)=C(C)C1=O` | 11.77 | rising, full curve, poor fit |
| 42 | `Cc1cc(NC(=O)Nc2ccc(N(C)C)cc2)c2cc(F)cc(F)c2n1` | 0.0093 | cytotoxic, full curve, poor fit |
| 43 | `O=S(=O)(O)c1ccc2cc(N=Nc3cc(S(=O)(=O)O)c4cccnc4c3O)ccc2c1` | 11.77 | cytotoxic, single point |
| 44 | `NC(=O)c1cccc2cn(-c3ccc([C@@H]4CCCNC4)cc3)nc12` | 37.22 | cytotoxic, single point |
| 45 | `NC(N)=NC(N)=NCCc1ccccc1` | 23.48 | cytotoxic, single point |
| 46 | `COc1cc2ncnc(Nc3cccc(Br)c3)c2cc1OC` | 13.21 | cytotoxic, partial curve, poor fit |
| 47 | `COc1ccnc2[nH]cc(C(=O)C(=O)N3CCN(C(=O)c4ccccc4)C[C@@H]3C)c12` | 0.1321 | rising, full curve, poor fit |
| 48 | `CC[C@@H](C)[C@H](NC(=O)[C@H](CC1CCCCC1)NC(=O)c1ccno1)C(=O)N1CCC2(CCc3ccccc32)CC1` | 0.0118 | cytotoxic, full curve, poor fit |
| 49 | `CC(=O)Oc1ccccc1C(=O)O` | 0.1482 | cytotoxic, full curve, poor fit |
| 50 | `OCC(O)C(O)C(O)CO` (stereo unspecified) | 16.63 | cytotoxic, partial curve, poor fit |
| 51 | `O=C(O)CCNc1cc(N2CCc3ccccc3CC2)nc(-c2ccccn2)n1` | 11.77 | cytotoxic, full curve, poor fit |
| 52 | `CC(N[C@H]1CCCC[C@H]1NC(=O)c1ccc(Cl)cc1)c1cccc2ccccc12` (stereo partly specified) | 0.1177 | cytotoxic, full curve, poor fit |
| 53 | `CCOc1ccc(Cc2cc([C@@H]3O[C@H](CO)[C@@H](O)[C@H](O)[C@@H]3O)ccc2Cl)cc1` | 9.35 | cytotoxic, partial curve, poor fit |
| 54 | `C=C1C(=O)O[C@H]2[C@@H]1CCC(C)=CCC[C@@]1(C)O[C@@H]21` | 1.177 | cytotoxic, full curve, poor fit |
| 55 | `O=C(O)C1CCCN(CCC=C(c2ccccc2)c2ccccc2)C1` (stereo unspecified) | 0.0418 | cytotoxic, full curve, poor fit |
| 56 | `COc1ccc(-n2nc(C(N)=O)c3c2C(=O)N(c2ccc(N4CCCCC4=O)cc2)CC3)cc1` | 29.57 | cytotoxic, single point |

Repeated from the top, 5 entries:

- COc1cnc(NS(=O)(=O)c2ccc(N)cc2)nc1 | fitted potency 0.0017 µM (rising, full curve, poor fit)
- Fc1cc(-c2cccc3ncc(-c4cnn(C5CCNCC5)c4)nc23)cc(F)c1CN1CCOCC1 | fitted potency 13.21 µM (cytotoxic, partial curve, poor fit)
- NNCCc1ccccc1 | fitted potency 1.865 µM (cytotoxic, partial curve, poor fit)
- Cc1cn2cc(C(=O)N(C)CCO)cc(N[C@@H]3CCOc4cccc(C)c43)c2n1 | fitted potency 0.0012 µM (rising, full curve, poor fit)
- O=c1[nH]c(=O)n([C@H]2C[C@@H](O)[C@@H](CO)O2)cc1C(F)(F)F | fitted potency 11.77 µM (cytotoxic, partial curve)